The values are deposited in ChEMBL (CHEMBL3988442, “University of Dundee, Small-Polar-MMV Screening Library” (2021)).

Mtb glucose medium: 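Phenotypic screen: M. tuberculosis growth, glucose 7H9 medium, 3 days; the read-out is not stated. Compounds at 50 µM. Direction is inferred from retests: higher values go with more growth inhibition. Of about 69,000 compounds tested this way, about 760 (1.1%) reached 50% or more in at least one test.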
Mtb cholesterol medium: 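Whole-cell growth test on Mycobacterium tuberculosis, read after 4 days in a medium based on cholesterol and the lipid DPPC; the read-out is not stated. Concentration: 50 µM. The record gives no direction; compounds that gave an IC50 in retests scored well above the rest, so higher reads as more growth inhibition. Of about 69,000 compounds tested this way, about 370 (0.54%) reached 50% or more in at least one test.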

Results are given as percent effect. How 0% and 100% were set is not recorded. Most values in the screen are low, and negative values occur. This is an unselected part of the compounds tested. Two or more numbers in one place are separate tests of the same structure; such repeats can differ widely.

O=C(Cc1ccc2c(c1)OCO2)N1CCCN(c2ccccc2)CC1 gave Mtb glucose medium: 2.821%; Mtb cholesterol medium: 0.4377%.
c1cnnc(N2CCCC2CNc2ncnc3sccc23)c1 (configuration not stated) gave Mtb glucose medium: 18.22%; Mtb cholesterol medium: 13.32%.
CCc1ccc(C(=O)N2CCN(c3nc(C)cc(OC)n3)CC2)o1 gave Mtb glucose medium: 53.67%; Mtb cholesterol medium: -13.35%.
O=C(O)C(F)(F)F.[H][C@@]12OCCN(c3ncccn3)[C@@]1([H])CC[C@H]2OCC1CCOCC1 gave Mtb glucose medium: 4.019%; Mtb cholesterol medium: -8.071%.
c1coc(-c2noc(CN3CCc4cncnc4C3)n2)c1 gave Mtb glucose medium: 6.067%; Mtb cholesterol medium: 6.199%.
CC(C)c1nccn1C1CCCN(C(=O)c2cnc[nH]2)C1 (configuration not stated) gave Mtb glucose medium: 22.94%; Mtb cholesterol medium: 9.329%.
O=C(CCn1ccc2ccccc21)N1CCN(Cc2cccnc2)CC1 gave Mtb glucose medium: 13%; Mtb cholesterol medium: -4.388%.
Cl.Cl.Cn1nc(C2CNCCO2)cc1CCOc1ccc(Cl)cc1 (configuration not stated) gave Mtb glucose medium: 19.2%; Mtb cholesterol medium: -26.41%.
Cc1sc2nc(SC(C)c3nc(C(C)C)no3)nc(N)c2c1C (configuration not stated) gave Mtb glucose medium: -1.922%; Mtb cholesterol medium: -39.59%.
COc1ccc(C[C@H]2CN(C(=O)c3cscn3)CC[C@@H]2OC)cc1 gave Mtb glucose medium: -58.98%; Mtb cholesterol medium: -14.11%.
CC(C)c1cc(NC(=O)CN2CCC(N3CCNC3=O)CC2)on1 gave Mtb glucose medium: 14.98%; Mtb cholesterol medium: -3.918%.
Cn1ccc(C(=O)Nc2nccn2Cc2ccccc2Cl)cc1=O gave Mtb glucose medium: -46.67%; Mtb cholesterol medium: 17.32%.
CSCCCN1CCN(c2ccc(Cl)cn2)CC1 gave Mtb glucose medium: -5.221%; Mtb cholesterol medium: -1.4%.
CC(C)(C)c1nnc(CNc2c(F)cccc2-n2cccn2)o1 gave Mtb glucose medium: 16.76%; Mtb cholesterol medium: -13.55%.
CN(C)C(C(=O)Nc1nccs1)c1c(F)cccc1Cl (configuration not stated) gave Mtb glucose medium: 1.196%; Mtb cholesterol medium: -15.98%.
O=C(O)C(F)(F)F.[H][C@]12CCN(C(=O)Cc3cccs3)C[C@@]1([H])OCCN(C(C)C)C2 gave Mtb glucose medium: 4.038%; Mtb cholesterol medium: -9.574%.
CNc1ncccc1C(=O)N1CCCC2(C1)C(=O)N(C)c1ccccc12 (configuration not stated) gave Mtb glucose medium: 23.73%; Mtb cholesterol medium: 0.4542%.
O=C(O)C(F)(F)F.O=C1CC2(CCN(CC3CC3)C2)CN1c1cccc(F)c1 (configuration not stated) gave Mtb glucose medium: -8.935%; Mtb cholesterol medium: 1.558%.
O=C(NCc1cc[nH]n1)NC1CCCN(c2ncccn2)C1 (configuration not stated) gave Mtb glucose medium: -6.034% and -8.458%; Mtb cholesterol medium: -9.841%.
Cc1cc(-c2cnn(CCNC(=O)c3cccnc3)c2C2CC2)on1.Cl gave Mtb glucose medium: 3.045%; Mtb cholesterol medium: -8.082%.
CC(=O)Nc1nc(-c2ccc(F)cc2)c[nH]1 gave Mtb glucose medium: -22.98%; Mtb cholesterol medium: -9.546%.
CCc1nc2ccccc2c(=O)n1CC1(O)CCN(C(=O)C2CC2)CC1.Cl gave Mtb glucose medium: 35.3%; Mtb cholesterol medium: 12.56%.
COc1cc(CN2CCC(NC(=O)c3cccn3C)C2)cc(OC)c1 (configuration not stated) gave Mtb glucose medium: 19.15%; Mtb cholesterol medium: 21.1%.
[H][C@]12CC[C@@H](N(C)c3cccnn3)[C@@]1([H])CN(Cc1cccc(C(=O)O)c1)C2 gave Mtb glucose medium: -4.175%; Mtb cholesterol medium: -3.133% and 9.382%.
CCc1nc(CN(C)C2CCN(Cc3nnc(C4CCC4)o3)C2)no1 (configuration not stated) gave Mtb glucose medium: -13.31%; Mtb cholesterol medium: -23.29%.
Cc1nc(CN2CCN(Cc3nccn3C)CC2)no1 gave Mtb glucose medium: 19.5%; Mtb cholesterol medium: 2.293%.
CN1C(=O)C2(CCN(C(=O)C3CCOCC3)CC2)c2ccccc21 gave Mtb glucose medium: -26.6%; Mtb cholesterol medium: 2.848%.

For reference, 3 entries once more:

* CNc1ncccc1C(=O)N1CCCC2(C1)C(=O)N(C)c1ccccc12 (configuration not stated) | Mtb glucose medium: 23.73%; Mtb cholesterol medium: 0.4542%
* CN(C)C(C(=O)Nc1nccs1)c1c(F)cccc1Cl (configuration not stated) | Mtb glucose medium: 1.196%; Mtb cholesterol medium: -15.98%
* Cc1nc(CN2CCN(Cc3nccn3C)CC2)no1 | Mtb glucose medium: 19.5%; Mtb cholesterol medium: 2.293%